For at least one entry, the source does not settle the construct or the ends of the probe. For some assays here: No signal at the amounts used counts as a negative. For some assays here: At least one verdict rests on a figure or table, not on a statement of the authors. For some assays here: Tags and fusion partners may be left off the protein sequences shown.
Key:
[1] = test system: AmtR (Mycobacterium smegmatis); experiment: pull-down; settings: control protein; Pull-down: 10 mM HEPES pH 7.5, 20 mM KCl, 1 mM MgCl2, 1 mM DTT, room temperature 15 min; 400 nM biotinylated RNA, 800 nM protein (Results state 1:1 molar); recombinant protein; protein details: His (anti-His detection); label: 3' biotin (pull-down)
[2] = target: T1, PfPPR1 (tag removed) (UniProt Q8IM30); experiment: pull-down; settings: TRX tag removed; Pull-down: 10 mM HEPES pH 7.5, 20 mM KCl, 1 mM MgCl2, 1 mM DTT, room temperature 15 min; 400 nM biotinylated RNA, 800 nM protein (Results state 1:1 molar); recombinant protein; residues 121-608; label: 3' biotin (pull-down)
T1 sequence (looked up): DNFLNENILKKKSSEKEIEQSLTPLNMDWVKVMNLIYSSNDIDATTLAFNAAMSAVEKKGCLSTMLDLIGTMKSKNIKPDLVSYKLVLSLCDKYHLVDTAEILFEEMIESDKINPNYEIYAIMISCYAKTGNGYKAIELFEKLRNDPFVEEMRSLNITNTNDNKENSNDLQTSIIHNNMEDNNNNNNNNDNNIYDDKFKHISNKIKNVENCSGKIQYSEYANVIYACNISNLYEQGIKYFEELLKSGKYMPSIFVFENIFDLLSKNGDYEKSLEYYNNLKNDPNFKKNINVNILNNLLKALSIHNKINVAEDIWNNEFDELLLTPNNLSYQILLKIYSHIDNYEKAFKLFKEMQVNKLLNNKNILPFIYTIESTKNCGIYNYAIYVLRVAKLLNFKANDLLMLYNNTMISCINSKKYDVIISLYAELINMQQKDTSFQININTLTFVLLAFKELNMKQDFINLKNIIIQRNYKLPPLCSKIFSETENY

ACGACAUUAUAUGGUCGGA [RNA oligo 1]
binding result [1]: no binding | binding result [2]: binds
